The other results are listed elsewhere or left out. The main result of the screen is listed elsewhere. These columns were measured beside it and carry no call. Most of these compounds were active or inconclusive in the main read-out, so they are no random draw. Words in brackets tell the shape of the fitted curve; partial curves, single points and poor fits give uncertain potencies.
Experiment: qHTS Assay to Find Inhibitors of Chronic Active B-Cell Receptor Signaling
Conditions: ABC-DLBCL IkBa-CBG/CBR reporter, luminescence ratio (green luciferase fused to IkBa over red control in TMD8 lymphoma cells), 4 h
Procedure, shortened: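 Concentration-response series (up to 46 uM) were applied to TMD8 dual-reporter cells for 4 h at 37C with doxycycline. Green/red ratio, after filter-overlap correction, defined %Activity; red signal alone was normalised to basal cells and zero luminescence.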

[1] = measured here: CBR red luminescence, cell number
[2] = measured here: IkBa-CBG green luminescence

## O=C(OC(c1ccc(NS(=O)(=O)c2ccccc2)cc1)(C(F)(F)F)C(F)(F)F)c1ccccc1
[1]
  AC50: 23.1 µM [falling, partial curve]

## CC1=CC(C)(C)N(S(=O)(=O)c2ccc(C)cc2)c2ccc(C)cc21
[1]
  AC50: 9.2 µM [rising, partial curve, poor fit]
[2]
  AC50: 8.2 µM [falling, partial curve]

## Cc1cc(C)c2oc(-c3ccc(Cl)c(NC(=O)c4ccc(C#N)cc4F)c3)nc2c1
[1]
  AC50: 29.1 µM [rising, single point]

## O=C(CN1CCCCCCC1)N/N=C/c1ccc(F)cc1F
[1]
  AC50: 0.291 µM [rising, partial curve, poor fit]

## O=C(O)c1cc(-n2[nH]c(=O)c3ccccc3c2=O)ccc1Cl
[1]
  AC50: 14.1 µM [falling, partial curve]

## O=C1c2ccccc2NC(c2ccccc2)N1/N=C/c1ccccc1 (centres undefined)
[1]
  AC50: 20 µM [falling, partial curve, poor fit]

## CSC(SC)=C(C#N)C(=O)c1ccccc1
[1]
  AC50: 15.8 µM [falling, single point]

## Cc1cc(C(=O)Nc2ccccn2)cs1
[1]
  AC50: 29.1 µM [falling, single point]

## O=C(Nc1ccc(F)c(F)c1)C1CCCCC1
[1]
  AC50: 29.1 µM [rising, single point]

## O=C1CSC(c2cn(-c3ccccc3)nc2-c2cc3ccccc3o2)N1Cc1ccccc1 (centres undefined)
[1]
  AC50: 10.3 µM [rising, partial curve, poor fit]

## CCCOc1ccc(C(=O)C(CN2CCOCC2)c2ccccc2)cc1 (centres undefined)
[1]
  AC50: 9.2 µM [falling, partial curve]

## Nc1[nH]n(-c2ccccc2)c(=O)c1N=Nc1ccc2ncsc2c1
[1]
  AC50: 8.91 µM [falling, partial curve, poor fit]
[2]
  AC50: 0.316 µM [rising, full curve, poor fit]

## COc1ccc(Nc2c([N+](=O)[O-])ccc3c2=NC2(CCCCC2)N=3)cc1
[1]
  AC50: 17.8 µM [rising, partial curve, poor fit]

## COC(=O)c1ccc(Sc2nnnn2-c2ccccc2)c([N+](=O)[O-])c1
[1]
  AC50: 35.5 µM [falling, single point]

## O=C1CN(C(=O)CSc2nc3cc(Cl)ccc3c(=O)n2Cc2ccccc2)c2ccccc2N1
[1]
  AC50: 6.51 µM [falling, single point]

## O=C1N/C(=N/c2ccccn2)SC1Cc1ccccc1 (centres undefined)
[1]
  AC50: 35.5 µM [falling, single point]

## CCOC(=O)Cc1ccc(NCc2ccc(Cl)cc2)cc1
[1]
  AC50: 14.1 µM [rising, single point]

## COCCCNC(=O)/C(C#N)=C/c1c(N2CCN(c3ccc(OC)cc3)CC2)nc2c(C)cccn2c1=O
[1]
  AC50: 35.5 µM [falling, single point]

## CCOC(=O)Cc1csc(NC(=O)c2cc(C)cc(C)c2)n1
[1]
  AC50: 17.8 µM [falling, single point]

## Cc1ccc(NC(=S)c2ccc(N(C)C)cc2)cc1
[1]
  AC50: 29.1 µM [falling, single point]

## Cc1noc(/C=C/c2ccco2)c1S(=O)(=O)N1CCC(C(=O)N2c3ccccc3CC2C)CC1 (centres undefined)
[1]
  AC50: 3.55 µM [falling, single point]

## Cc1c(Cl)c([N+](=O)[O-])nn1CC(=O)NCc1cccs1
[1]
  AC50: 29.1 µM [rising, single point]

## O=C(CSc1nc2ccccc2nc1N1CCCCC1)N1CCN(c2ccccc2)CC1
[1]
  AC50: 8.91 µM [falling, partial curve, poor fit]

## COc1ccc(C(C[N+](=O)[O-])c2c(C)[nH]n(-c3ccccc3)c2=O)cc1 (centres undefined)
[1]
  AC50: 17.8 µM [rising, partial curve]
[2]
  AC50: 25.1 µM [falling, single point]

## COc1ccc(C2c3c(ncn(CCCO)c3=N)Oc3ccc4ccccc4c32)cc1OC (centres undefined)
[1]
  AC50: 35.5 µM [falling, single point]

## Cc1cc(/C=C(\C#N)C(=O)N2CCOCC2)c(C)n1C1CCCC1
[1]
  AC50: 5.62 µM [rising, full curve, poor fit]

## NC1=NC(c2ccc(Cl)cc2)C(C(=O)c2ccccc2)N1 (centres undefined)
[1]
  AC50: 35.5 µM [rising, single point]
[2]
  AC50: 25.1 µM [falling, single point]

## O=C(NC1CCCC1)c1cc(-c2cccs2)on1
[1]
  AC50: 0.1 µM [falling, full curve, poor fit]

## Cc1cccc(NC(=O)Cn2c(=O)oc3ccccc32)c1
[1]
  AC50: 2.51 µM [falling, full curve]

## CC1(c2nnc(-c3ccc(Cl)cc3)o2)CC(c2c(Cl)cccc2Cl)=NO1 (centres undefined)
[1]
  AC50: 2.82 µM [rising, full curve, poor fit]

## CCOC(=O)c1ccc(NC(=S)NNC(=O)C2(C)CC2(Cl)Cl)cc1 (centres undefined)
[1]
  AC50: 3.26 µM [falling, partial curve]

## Clc1ccccc1Cn1nnc2c(Nc3ccccc3)ncnc21
[1]
  AC50: 12.6 µM [falling, partial curve, poor fit]

## COc1ccccc1CN1CCNC(=O)C1CC(=O)N(C)Cc1cnccn1 (centres undefined)
[1]
  AC50: 15.8 µM [rising, single point]

## Cc1ccc(OCCCC(=O)Nc2ccc(Cl)c(S(=O)(=O)N3CCOCC3)c2)cc1
[1]
  AC50: 29.1 µM [falling, single point]

## Cc1cc(=O)[nH]c(SCC(=O)Nc2ccccc2[N+](=O)[O-])n1
[1]
  AC50: 22.4 µM [rising, single point]

## CCOC(=O)c1cc2sccc2n1CC(=O)C(C)(C)C
[1]
  AC50: 5.62 µM [rising, single point]

## O=[N+]([O-])c1ccc(-c2cnc(SC(c3ccccc3)c3ccccc3)[nH]2)cc1
[1]
  AC50: 20.6 µM [falling, partial curve, poor fit]

## CCOc1ccccc1C1CC(c2cccs2)=NN1S(C)(=O)=O (centres undefined)
[1]
  AC50: 12.6 µM [rising, single point]

## CN(C)c1ccc(/C=C/c2cccc[n+]2[O-])cc1
[1]
  AC50: 35.5 µM [falling, single point]

## COc1ccc(-c2ccc(C#N)c(OC)n2)cc1
[1]
  AC50: 11.2 µM [rising, partial curve, poor fit]

Reference: PubChem BioAssay AID493014 (National Center for Advancing Translational Sciences (NCATS), 2011)
